Source: patent US20190160152A1 (OPKO BIOLOGICS LTD., priority 2016, published 2019)
Plain letter strings leave the end groups untold.

Assay: peptide made by a vendor (Fmoc solid-phase peptide synthesis)
Conditions: whole synthesis, scale 200 mg resin

HSQGTFTSDYSKYLDSRRAQDFVQWLMNTKRNRNNIA
crude purity (method not given): 36% pure
